Laboratory results: article PMC5508529
Results are given in words; binding and its absence hold for the method and conditions named. Binding seen in cells or lysates may run through a third protein. Some results given as binding are weak or reduced against the parent protein; the word gives no strength.

Chains of the proteins cited; added tags and fusions are not shown.
UniProt Q92793: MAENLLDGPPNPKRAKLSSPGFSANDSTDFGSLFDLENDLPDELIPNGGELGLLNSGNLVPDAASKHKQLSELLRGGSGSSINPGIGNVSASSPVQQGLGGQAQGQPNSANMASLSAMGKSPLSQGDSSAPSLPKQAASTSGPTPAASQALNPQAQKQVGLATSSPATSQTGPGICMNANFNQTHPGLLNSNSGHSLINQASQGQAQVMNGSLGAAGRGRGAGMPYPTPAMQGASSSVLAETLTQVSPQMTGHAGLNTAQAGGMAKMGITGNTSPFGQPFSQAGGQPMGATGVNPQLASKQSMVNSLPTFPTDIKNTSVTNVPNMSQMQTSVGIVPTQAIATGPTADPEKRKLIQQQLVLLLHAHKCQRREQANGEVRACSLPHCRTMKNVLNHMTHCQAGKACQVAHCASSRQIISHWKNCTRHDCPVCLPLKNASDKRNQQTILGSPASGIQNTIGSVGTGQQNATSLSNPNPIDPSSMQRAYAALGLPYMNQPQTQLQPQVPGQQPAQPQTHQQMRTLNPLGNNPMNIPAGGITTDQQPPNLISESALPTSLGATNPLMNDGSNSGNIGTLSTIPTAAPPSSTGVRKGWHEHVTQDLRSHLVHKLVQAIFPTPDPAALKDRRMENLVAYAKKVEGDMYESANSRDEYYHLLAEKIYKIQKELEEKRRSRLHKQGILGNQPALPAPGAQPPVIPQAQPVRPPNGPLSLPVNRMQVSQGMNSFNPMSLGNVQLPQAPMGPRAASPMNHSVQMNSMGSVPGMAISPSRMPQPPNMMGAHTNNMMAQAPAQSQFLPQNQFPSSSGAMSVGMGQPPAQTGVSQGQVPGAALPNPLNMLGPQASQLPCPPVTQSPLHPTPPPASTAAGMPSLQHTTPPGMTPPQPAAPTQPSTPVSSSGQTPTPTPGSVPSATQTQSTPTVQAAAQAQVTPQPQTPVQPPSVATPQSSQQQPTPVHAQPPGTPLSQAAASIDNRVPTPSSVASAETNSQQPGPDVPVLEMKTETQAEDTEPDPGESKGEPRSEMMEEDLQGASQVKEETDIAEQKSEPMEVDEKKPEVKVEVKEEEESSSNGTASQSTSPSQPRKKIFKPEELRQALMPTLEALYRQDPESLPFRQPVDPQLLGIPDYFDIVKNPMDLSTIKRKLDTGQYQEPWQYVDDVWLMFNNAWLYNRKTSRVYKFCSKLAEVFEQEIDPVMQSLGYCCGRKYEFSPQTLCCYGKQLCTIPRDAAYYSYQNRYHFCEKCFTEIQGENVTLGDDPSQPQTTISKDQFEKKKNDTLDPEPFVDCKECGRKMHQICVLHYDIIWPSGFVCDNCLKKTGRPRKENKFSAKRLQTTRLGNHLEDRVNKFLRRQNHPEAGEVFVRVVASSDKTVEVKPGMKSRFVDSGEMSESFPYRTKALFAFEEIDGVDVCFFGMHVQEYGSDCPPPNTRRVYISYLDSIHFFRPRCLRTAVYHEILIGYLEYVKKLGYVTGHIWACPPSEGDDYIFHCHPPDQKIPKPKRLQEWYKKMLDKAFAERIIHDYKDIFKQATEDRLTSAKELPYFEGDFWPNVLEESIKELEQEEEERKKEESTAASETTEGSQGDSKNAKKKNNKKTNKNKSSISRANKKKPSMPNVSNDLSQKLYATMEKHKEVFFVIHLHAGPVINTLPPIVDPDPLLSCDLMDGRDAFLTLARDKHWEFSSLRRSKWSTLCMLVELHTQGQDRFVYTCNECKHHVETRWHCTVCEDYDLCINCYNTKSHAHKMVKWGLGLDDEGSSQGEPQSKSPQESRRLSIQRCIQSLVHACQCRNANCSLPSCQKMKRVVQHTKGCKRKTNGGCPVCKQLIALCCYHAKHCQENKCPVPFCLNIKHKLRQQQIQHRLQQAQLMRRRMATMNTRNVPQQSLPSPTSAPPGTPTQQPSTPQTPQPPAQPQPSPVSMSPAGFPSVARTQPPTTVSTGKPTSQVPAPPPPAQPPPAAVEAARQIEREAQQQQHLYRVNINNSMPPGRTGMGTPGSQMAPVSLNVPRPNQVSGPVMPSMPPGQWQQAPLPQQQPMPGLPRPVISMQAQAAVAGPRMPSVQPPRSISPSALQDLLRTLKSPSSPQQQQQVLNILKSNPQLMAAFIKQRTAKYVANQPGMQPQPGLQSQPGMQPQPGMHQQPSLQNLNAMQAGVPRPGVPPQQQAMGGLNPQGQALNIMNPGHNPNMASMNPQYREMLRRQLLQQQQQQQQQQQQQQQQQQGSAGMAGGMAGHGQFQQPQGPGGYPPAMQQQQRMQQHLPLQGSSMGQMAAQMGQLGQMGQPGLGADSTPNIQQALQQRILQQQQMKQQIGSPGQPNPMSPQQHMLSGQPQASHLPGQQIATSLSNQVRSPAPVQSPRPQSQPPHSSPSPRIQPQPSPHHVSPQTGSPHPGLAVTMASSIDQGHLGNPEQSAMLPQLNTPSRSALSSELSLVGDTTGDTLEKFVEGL
UniProt Q16665: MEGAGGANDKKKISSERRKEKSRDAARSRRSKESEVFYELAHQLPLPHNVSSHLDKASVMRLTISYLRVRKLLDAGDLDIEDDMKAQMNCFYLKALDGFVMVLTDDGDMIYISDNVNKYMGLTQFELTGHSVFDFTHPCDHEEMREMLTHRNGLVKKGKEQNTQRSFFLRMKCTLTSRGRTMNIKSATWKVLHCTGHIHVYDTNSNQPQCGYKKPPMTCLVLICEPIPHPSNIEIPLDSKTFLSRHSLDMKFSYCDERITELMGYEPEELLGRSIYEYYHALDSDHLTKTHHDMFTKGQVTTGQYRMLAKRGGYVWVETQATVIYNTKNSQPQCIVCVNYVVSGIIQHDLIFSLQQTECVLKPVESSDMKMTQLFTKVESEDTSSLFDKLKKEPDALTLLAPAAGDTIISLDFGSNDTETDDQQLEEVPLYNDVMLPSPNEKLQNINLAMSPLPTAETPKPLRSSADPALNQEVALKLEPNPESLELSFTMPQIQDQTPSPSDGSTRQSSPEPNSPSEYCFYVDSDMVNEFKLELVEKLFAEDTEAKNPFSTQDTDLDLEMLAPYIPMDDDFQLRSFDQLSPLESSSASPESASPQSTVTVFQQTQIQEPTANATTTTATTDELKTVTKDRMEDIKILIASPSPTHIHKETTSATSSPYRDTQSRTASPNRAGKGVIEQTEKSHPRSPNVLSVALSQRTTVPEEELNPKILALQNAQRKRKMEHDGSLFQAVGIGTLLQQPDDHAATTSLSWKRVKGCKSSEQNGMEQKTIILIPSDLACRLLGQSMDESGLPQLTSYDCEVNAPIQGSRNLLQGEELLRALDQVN
UniProt O43524: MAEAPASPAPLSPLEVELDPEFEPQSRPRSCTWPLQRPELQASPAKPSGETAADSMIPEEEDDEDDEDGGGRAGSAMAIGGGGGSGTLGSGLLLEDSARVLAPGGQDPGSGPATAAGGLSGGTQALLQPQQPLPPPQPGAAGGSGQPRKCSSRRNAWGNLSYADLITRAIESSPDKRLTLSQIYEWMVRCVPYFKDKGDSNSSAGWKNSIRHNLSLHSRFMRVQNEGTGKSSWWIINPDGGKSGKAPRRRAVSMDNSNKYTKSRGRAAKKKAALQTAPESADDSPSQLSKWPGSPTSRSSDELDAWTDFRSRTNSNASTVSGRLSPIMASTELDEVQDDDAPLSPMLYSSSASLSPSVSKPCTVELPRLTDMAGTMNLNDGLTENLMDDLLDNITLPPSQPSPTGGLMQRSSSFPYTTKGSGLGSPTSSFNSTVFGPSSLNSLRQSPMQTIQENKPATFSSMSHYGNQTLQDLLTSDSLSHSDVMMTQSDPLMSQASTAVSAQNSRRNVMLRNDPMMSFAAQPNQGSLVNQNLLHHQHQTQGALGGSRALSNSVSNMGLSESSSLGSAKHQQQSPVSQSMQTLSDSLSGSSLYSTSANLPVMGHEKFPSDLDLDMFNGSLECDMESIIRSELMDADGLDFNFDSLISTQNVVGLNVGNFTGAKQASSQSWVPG

Target: CREB-binding protein (human (endogenous in UCB-hMSCs)) (UniProt Q92793)
Assay: co-IP; CBP antibody immobilised on AminoLink Plus coupling resin, incubated with UCB-hMSC lysate for 6 h at 4 °C; cells under hypoxia for 24 h or normoxia; IgG as negative control; western blot

| binding | Substance |
| --- | --- |
| binds | hypoxia-inducible factor-1 alpha (from UniProt Q16665 1-826) |
| binds | forkhead box, class O3 (from UniProt O43524 1-673) |
